The source of these data is patent publication US20070014761A1.

In experiment [1] the target is IL12p35-Chis (human). Briefly: co-immunoprecipitation from conditioned medium of co-transfected 293T cells (Ni NTA-agarose pulls down zsig81-Cflag; anti-FLAG-agarose captures IL12p35Chis), western blot. On the technique in general: Immunoblotting shows a protein as a band on a membrane.
Experiment [2] addresses IL12p35-Chis (human). Description: co-immunoprecipitation, western blot.

Results are given in words; binding and its absence hold for the method and conditions named. In cells and extracts the contact can be indirect. Binding can be weak; no strength is given. Where a sequence is shown, tags or fusion partners need not be part of it.

B1: zsig81-Cflag (ligand)
chain: SMCHRWSRAVLFPAAHRPKRSSSLPLNPVLQTSLEEVELLYEFLLAELEISPDLQISIKDEELASLRKASDFRTVCNNVIPKSIPDIRRLSASLSSHPGILKKEDFERTVLTLAYTAYRTALSHGHQKDIWAQSLVSLFQALRHDLMRSSQPGVPPDYKDDDDK
With B1, the binding entry in the experiment with IL12p35-Chis (human) [1] and with IL12p35-Chis (human) [2] was “binds” each time.
